In PMC12095603:
No constants are given. Whether binding was seen depends on the method and setting. In cells and extracts the contact can be indirect. Some entries that bind do so weakly or less than the wild type.

By UniProt entry, the sequences of proteins in these tests, tags left out.
UniProt P51449: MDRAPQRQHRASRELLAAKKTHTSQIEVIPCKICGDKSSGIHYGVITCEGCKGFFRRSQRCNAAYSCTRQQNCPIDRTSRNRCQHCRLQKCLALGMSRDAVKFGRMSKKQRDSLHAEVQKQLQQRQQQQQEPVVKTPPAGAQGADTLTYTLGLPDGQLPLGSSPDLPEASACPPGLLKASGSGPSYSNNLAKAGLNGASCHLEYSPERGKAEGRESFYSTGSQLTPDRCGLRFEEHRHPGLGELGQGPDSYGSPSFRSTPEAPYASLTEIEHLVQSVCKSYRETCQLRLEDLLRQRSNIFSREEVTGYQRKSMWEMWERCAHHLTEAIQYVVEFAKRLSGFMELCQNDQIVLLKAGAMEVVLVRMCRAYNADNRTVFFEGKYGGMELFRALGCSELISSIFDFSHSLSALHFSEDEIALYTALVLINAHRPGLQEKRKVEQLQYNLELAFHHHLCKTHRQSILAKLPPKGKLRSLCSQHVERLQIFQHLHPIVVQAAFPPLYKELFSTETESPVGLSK
UniProt Q13547: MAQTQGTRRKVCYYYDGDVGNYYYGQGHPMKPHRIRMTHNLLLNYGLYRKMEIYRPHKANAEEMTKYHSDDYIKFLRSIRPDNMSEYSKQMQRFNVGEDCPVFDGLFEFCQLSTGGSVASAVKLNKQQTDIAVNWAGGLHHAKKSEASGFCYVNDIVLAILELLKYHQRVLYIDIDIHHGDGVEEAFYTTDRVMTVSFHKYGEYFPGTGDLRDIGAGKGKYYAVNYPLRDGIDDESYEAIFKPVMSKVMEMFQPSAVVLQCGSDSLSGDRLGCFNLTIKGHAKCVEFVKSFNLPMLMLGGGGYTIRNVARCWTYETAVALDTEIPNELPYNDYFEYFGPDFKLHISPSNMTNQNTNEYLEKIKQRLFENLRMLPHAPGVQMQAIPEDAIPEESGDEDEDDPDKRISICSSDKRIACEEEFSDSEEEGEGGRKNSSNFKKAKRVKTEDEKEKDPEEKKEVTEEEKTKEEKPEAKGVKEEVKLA
UniProt Q09472: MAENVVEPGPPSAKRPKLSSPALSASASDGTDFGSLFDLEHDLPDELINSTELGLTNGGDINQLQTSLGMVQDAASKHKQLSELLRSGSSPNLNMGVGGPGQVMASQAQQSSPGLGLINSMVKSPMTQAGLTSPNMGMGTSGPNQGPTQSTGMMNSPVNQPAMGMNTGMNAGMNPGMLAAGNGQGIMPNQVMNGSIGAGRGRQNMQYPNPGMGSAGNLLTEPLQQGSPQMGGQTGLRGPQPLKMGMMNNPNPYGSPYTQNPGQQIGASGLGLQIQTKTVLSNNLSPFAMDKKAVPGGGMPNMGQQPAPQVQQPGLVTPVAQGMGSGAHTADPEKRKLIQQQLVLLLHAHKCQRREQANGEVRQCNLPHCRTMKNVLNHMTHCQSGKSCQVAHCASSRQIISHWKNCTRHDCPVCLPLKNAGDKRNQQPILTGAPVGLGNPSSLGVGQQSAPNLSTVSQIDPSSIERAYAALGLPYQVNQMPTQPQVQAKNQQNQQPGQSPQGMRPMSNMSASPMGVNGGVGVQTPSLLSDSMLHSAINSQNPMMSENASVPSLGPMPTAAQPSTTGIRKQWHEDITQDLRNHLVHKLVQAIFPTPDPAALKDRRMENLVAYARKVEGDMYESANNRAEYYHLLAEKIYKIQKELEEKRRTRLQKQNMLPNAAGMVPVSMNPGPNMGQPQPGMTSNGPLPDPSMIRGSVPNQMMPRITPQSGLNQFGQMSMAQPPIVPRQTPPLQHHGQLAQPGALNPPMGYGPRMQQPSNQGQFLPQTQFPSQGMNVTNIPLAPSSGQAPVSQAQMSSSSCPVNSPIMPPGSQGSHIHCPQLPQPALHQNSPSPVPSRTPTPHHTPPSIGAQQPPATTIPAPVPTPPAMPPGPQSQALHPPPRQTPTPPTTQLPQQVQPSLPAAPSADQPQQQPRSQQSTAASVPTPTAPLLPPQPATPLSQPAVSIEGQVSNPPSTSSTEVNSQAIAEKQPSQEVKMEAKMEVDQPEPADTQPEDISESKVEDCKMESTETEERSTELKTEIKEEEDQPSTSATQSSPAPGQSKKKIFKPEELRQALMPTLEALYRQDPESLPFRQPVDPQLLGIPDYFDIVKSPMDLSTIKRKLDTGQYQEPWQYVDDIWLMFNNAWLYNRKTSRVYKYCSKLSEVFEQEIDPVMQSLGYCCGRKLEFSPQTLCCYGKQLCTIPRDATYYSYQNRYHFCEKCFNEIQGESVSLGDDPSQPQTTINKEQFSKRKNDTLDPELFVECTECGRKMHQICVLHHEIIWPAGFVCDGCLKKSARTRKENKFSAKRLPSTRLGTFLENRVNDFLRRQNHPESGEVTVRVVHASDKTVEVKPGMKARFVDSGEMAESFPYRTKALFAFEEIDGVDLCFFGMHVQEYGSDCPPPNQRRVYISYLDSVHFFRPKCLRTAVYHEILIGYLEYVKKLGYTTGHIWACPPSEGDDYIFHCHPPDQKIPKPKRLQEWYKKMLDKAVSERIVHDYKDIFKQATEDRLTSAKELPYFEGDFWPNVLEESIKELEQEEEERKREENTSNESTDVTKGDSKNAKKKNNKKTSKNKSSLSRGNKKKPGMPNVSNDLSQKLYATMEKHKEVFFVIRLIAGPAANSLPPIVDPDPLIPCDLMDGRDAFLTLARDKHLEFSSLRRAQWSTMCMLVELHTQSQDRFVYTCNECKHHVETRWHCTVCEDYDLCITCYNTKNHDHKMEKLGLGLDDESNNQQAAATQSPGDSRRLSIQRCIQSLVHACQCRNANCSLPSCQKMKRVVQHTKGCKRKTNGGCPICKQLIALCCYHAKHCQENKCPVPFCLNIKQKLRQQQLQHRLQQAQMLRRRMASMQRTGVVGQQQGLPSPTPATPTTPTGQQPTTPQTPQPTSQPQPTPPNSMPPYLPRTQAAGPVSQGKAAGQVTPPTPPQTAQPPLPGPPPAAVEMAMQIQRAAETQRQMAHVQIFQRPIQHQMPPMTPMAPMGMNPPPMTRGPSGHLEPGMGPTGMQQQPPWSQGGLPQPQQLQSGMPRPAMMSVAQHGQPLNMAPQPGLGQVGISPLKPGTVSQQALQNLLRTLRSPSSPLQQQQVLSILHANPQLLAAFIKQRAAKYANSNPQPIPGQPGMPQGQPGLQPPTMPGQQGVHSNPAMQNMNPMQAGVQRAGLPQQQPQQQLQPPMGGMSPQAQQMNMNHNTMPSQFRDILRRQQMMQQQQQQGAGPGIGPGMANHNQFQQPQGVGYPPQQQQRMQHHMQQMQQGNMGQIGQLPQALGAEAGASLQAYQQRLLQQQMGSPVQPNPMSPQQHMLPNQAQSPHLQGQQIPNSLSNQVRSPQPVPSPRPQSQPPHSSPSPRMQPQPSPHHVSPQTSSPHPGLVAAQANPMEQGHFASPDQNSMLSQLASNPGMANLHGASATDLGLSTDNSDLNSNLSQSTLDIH
UniProt Q92793: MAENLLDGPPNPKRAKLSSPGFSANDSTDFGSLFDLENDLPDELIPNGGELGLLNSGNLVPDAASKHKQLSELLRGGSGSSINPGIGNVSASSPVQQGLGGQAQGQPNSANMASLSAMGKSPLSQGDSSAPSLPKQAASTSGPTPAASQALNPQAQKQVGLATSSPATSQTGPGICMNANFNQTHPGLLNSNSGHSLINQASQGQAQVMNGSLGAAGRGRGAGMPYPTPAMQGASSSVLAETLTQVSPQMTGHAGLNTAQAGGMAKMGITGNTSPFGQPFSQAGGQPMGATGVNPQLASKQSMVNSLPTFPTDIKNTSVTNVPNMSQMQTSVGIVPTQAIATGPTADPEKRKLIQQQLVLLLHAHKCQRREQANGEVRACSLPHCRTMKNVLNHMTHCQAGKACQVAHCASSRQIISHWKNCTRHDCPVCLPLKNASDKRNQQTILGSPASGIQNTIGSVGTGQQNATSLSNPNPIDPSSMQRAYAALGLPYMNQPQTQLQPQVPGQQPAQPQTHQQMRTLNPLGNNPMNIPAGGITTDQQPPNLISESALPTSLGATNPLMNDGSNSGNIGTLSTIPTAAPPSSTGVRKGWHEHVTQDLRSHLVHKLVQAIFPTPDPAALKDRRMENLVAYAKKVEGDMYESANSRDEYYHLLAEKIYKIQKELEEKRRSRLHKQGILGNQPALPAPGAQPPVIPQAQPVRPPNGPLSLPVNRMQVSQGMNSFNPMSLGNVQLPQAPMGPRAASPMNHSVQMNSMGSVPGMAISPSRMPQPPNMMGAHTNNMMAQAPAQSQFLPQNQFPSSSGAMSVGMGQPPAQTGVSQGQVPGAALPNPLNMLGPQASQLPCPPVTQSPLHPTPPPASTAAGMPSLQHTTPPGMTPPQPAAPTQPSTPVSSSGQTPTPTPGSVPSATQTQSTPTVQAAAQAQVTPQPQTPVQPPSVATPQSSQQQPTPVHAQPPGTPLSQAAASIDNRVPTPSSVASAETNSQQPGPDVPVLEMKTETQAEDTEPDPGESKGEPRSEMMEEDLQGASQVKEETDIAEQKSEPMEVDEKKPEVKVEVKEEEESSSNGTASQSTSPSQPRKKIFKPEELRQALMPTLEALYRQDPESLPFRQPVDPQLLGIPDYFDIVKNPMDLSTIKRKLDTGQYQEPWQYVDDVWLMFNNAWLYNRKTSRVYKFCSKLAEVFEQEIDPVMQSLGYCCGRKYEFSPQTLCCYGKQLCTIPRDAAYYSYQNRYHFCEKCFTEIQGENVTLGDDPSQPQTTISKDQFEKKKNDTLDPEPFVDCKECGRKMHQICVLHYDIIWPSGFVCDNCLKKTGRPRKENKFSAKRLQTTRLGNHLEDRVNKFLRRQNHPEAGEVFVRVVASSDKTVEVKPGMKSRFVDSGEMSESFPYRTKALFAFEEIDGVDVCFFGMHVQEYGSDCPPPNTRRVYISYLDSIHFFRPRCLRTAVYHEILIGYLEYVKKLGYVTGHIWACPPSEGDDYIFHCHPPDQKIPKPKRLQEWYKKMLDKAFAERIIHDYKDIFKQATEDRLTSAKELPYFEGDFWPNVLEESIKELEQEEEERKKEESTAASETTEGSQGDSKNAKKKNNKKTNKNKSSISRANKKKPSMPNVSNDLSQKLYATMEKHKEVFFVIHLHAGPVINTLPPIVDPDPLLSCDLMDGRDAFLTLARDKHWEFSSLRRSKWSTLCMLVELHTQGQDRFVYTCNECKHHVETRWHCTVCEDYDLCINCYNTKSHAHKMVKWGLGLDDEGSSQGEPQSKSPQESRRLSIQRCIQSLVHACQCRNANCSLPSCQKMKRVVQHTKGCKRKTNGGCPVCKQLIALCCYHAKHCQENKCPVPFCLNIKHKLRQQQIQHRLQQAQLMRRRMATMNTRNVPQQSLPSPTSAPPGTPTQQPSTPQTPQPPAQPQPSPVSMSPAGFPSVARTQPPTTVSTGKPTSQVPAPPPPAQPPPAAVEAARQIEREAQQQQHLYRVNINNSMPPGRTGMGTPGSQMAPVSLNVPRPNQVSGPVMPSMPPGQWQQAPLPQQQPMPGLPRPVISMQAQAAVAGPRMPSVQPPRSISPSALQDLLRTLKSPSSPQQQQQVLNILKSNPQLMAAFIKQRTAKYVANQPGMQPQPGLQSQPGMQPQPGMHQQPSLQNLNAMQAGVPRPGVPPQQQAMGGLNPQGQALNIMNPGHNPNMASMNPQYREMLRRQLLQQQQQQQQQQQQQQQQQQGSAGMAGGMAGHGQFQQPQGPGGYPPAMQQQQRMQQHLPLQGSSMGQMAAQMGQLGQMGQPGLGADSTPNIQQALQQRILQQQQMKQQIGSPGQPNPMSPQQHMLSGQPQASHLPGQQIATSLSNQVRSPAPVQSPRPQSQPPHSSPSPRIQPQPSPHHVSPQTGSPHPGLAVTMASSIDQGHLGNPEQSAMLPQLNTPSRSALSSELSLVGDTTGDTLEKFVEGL

Columns and labels:
Myc-tagged RORC [1] = molecular target: Myc-tagged RORC (UniProt P51449); experiment: co-IP; anti-Myc antibody on NK-92 cells transfected with Myc-tagged RORC, HA-tagged p300 and Flag-tagged HDACs or SIRTs; immunoblotting
Myc-tagged RORC [2] = molecular target: Myc-tagged RORC (UniProt P51449); experiment: co-IP; anti-Myc antibody on NK-92 cells transfected with Myc-tagged RORC and HA-tagged acetyltransferases; immunoblotting

Substance | binding (Myc-tagged RORC [1]) | binding (Myc-tagged RORC [2])
Flag-tagged HDAC1 (from UniProt Q13547 1-482) (enzyme) | binds | –
HA-tagged p300 (from UniProt Q09472 1-2414) (enzyme) | – | binds
HA-tagged CBP (from UniProt Q92793 1-2442) (enzyme) | – | binds
